Source: the supplement of paper PMC9549374
This is one part of the list. Rule as the data show it: active = 2-fold of DMSO or more and inactive = the rest. Single values of this set are uncertain. Some low values are a fixed figure set by the source, not a measured ratio.

These compounds were tested on CM7/1-hgem mouse ES cell-derived cardiomyocytes (assay: maximal number of mAG-hGem(1/110)-positive cardiomyocytes over 96 h, fold-change vs DMSO; higher = more cardiomyocyte cell cycle activity). Conditions: 1 µM; 96 (max over 12 h time points) h.

Q: With N[C@@H](Cc1ccc(O)c(O)c1)C(=O)O as the compound, how does the maximal number read?
A: inactive: 1

Q: Which maximal number does the source give for Oc1ccc(/C=C/c2cc(O)cc(O)c2)cc1 here?
A: inactive: 1

Q: With CC(COc1ccccc1)N(CCCl)Cc1ccccc1 (stereo not drawn) as the compound, how does the maximal number read?
A: inactive: 1

Q: How did the maximal number turn out when COc1c(-c2coc3cc4c(cc3c2=O)CC(O)C(C)(C)O4)ccc2c1C=CC(C)(C)O2 (stereo not drawn) was run?
A: inactive: 0

Q: With CC(C)=CCc1c2c(c3occ(-c4ccc(O)c(O)c4)c(=O)c3c1O)C=CC(C)(C)O2 as the compound, how does the maximal number read?
A: inactive: 1

Q: COc1cc2c(cc1OC)C1(O)C(=O)c3ccc(O)c(C(=O)O)c3OC1CO2 (stereo not drawn) was tested. Which maximal number did it give?
A: inactive: 1

Q: CC(C)CCC[C@@H](C)[C@H]1CC[C@H]2[C@@H]3CC[C@@H]4C[C@H](O)CC[C@]4(C)[C@H]3CC[C@]12C was tested. Which maximal number did it give?
A: inactive: 1

Q: Which maximal number does the source give for C=C1C[C@]23C[C@@]1(O)CC[C@H]2[C@@]12C=C[C@H](O)[C@@](C)(C(=O)O1)[C@H]2[C@@H]3C(=O)O here?
A: inactive: 1

Q: With CCOC(=O)COc1ccc2c(=O)cc(-c3ccccc3)oc2c1 as the compound, how does the maximal number read?
A: inactive: 1

Q: Which maximal number does the source give for C=C1[C@H]2CC[C@@]3(C)[C@H](c4ccoc4)OC(=O)C[C@]13O[C@H]1C[C@H](O)C(C)(C)[C@H](CC(=O)OC)[C@]12C [3-DEOXY-3beta-HYDROXYANGOLENSIC ACID METHYL ESTER] here?
A: inactive: 0

Q: How did the maximal number turn out when Cn1c(=O)[nH]c2ncn(C)c2c1=O was run?
A: inactive: 1

Q: With CCCCCCCCCCCCCCCC(=O)OC/C=C(C)/C=C/C=C(C)/C=C/C1=C(C)CCCC1(C)C as the compound, how does the maximal number read?
A: inactive: 1

Q: With CC1(C)C=Cc2cc3ccc(=O)oc3cc2O1 as the compound, how does the maximal number read?
A: inactive: 0

Q: FC(F)(Cl)C(F)(F)Cl was tested. Which maximal number did it give?
A: inactive: 1

Q: How did the maximal number turn out when COC(=O)c1c(C)cc(OC(=O)c2c(C)cc(O)c(C=O)c2O)c(C)c1O was run?
A: inactive: 0

Q: How did the maximal number turn out when CC(C)c1nc(CN(C)C(=O)N[C@H](C(=O)N[C@@H](Cc2ccccc2)C[C@H](O)[C@H](Cc2ccccc2)NC(=O)OCc2cncs2)C(C)C)cs1 was run?
A: inactive: 1

Q: For CCC(CCC(C)C1CCC2C3CCC4CC(O)CCC4(C)C3CCC12C)C(C)C (stereo not drawn), which maximal number is on record?
A: inactive: 1

Q: How did the maximal number turn out when CCCCN1CCCCC1C(=O)Nc1c(C)cccc1C (stereo not drawn) was run?
A: inactive: 0

Q: How did the maximal number turn out when O=C1c2c(O)cccc2C([C@@H]2O[C@H](CO)[C@@H](O)[C@H](O)[C@H]2O)c2cc(CO)cc(O)c21 (stereo partly drawn) was run?
A: inactive: 1

Q: For COC(=O)C1=C(C)NC(C)=C(C(=O)OC(C)C)C1c1cccc2nonc12 (stereo not drawn), which maximal number is on record?
A: inactive: 1

Q: With O=C1CCC(N2C(=O)c3ccccc3C2=O)C(=O)N1 (stereo not drawn) as the compound, how does the maximal number read?
A: inactive: 1

Q: Which maximal number does the source give for Cc1c(-c2cnccn2)ssc1=S here?
A: inactive: 1

Q: COc1ccc2c(=O)c(CC(=O)O)coc2c1 was tested. Which maximal number did it give?
A: inactive: 1

Q: With NC[C@H]1O[C@H](O[C@H]2[C@H](O)[C@@H](O[C@H]3O[C@H](CO)[C@@H](O)[C@H](N)[C@H]3O)[C@H](N)C[C@@H]2N)[C@H](N)[C@@H](O)[C@@H]1O as the compound, how does the maximal number read?
A: inactive: 1

Q: How did the maximal number turn out when CC1CCc2cc(F)cc3c(=O)c(C(=O)O)cn1c23 (stereo not drawn) was run?
A: inactive: 1

Q: Which maximal number does the source give for CCCCC[C@H](CC(=O)O)C(=O)O here?
A: inactive: 1

Q: With CCCCCCCCCC(=O)N[C@@H](Cc1c[nH]c2ccccc12)C(=O)N[C@H](CC(N)=O)C(=O)N[C@@H](CC(=O)O)C(=O)N[C@@H]1C(=O)NCC(=O)N[C@@H](CCCN)C(=O)N[C@@H](CC(=O)O)C(=O)N[C@H](C)C(=O)N[C@@H](CC(=O)O)C(=O)NCC(=O)N[C@H](CO)C(=O)N[C@@H]([C@H](C)CC(=O)O)C(=O)N[C@@H](CC(=O)c2ccccc2N)C(=O)O[C@@H]1C as the compound, how does the maximal number read?
A: inactive: 1

Q: How did the maximal number turn out when CS(C)(=O)=O was run?
A: inactive: 1

Q: How did the maximal number turn out when COc1cc(C)c2c(c1C=O)Oc1c(c(C)c(O)c3c1C(O)OC3=O)OC2=O (stereo not drawn) was run?
A: inactive: 1

Q: With CCC(C)(C)c1ccc(CC(C)CN2C[C@@H](C)O[C@@H](C)C2)cc1 (stereo partly drawn) as the compound, how does the maximal number read?
A: inactive: 1

Q: How did the maximal number turn out when O=C(O[C@@H]1Cc2c(O)cc(O)cc2O[C@@H]1c1ccc(O)c(O)c1)c1cc(O)c(O)c(O)c1 was run?
A: inactive: 1

Q: Which maximal number does the source give for C[C@H]1C(=O)CC[C@@H]2[C@]1(C)CC[C@H]1[C@@]2(C)CC[C@@]2(C)[C@@H]3CC(C)(C)CC[C@]3(C)CC[C@]12C here?
A: inactive: 0

Q: For Nc1ccn([C@@H]2O[C@H](CO)[C@@H](O)[C@H]2O)c(=O)n1, which maximal number is on record?
A: inactive: 1

Q: Which maximal number does the source give for C[N+](C)(C)CCO.[Cl-] here?
A: inactive: 1

Q: O=C1C=C2CC3(O)COc4cc(O)ccc4C3=C2C=C1O (stereo not drawn) was tested. Which maximal number did it give?
A: inactive: 1

Q: With CN1C2CCCC1CC(NC(=O)c1nn(C)c3ccccc13)C2 (stereo not drawn) as the compound, how does the maximal number read?
A: inactive: 1

Q: CCCCCC(=O)Cc1cc(O)cc(O)c1C(=O)Oc1cc(CC(=O)CCCCC)c(C(=O)O)c(OC)c1 was tested. Which maximal number did it give?
A: inactive: 0

Q: Which maximal number does the source give for CC(O)(CC(=O)O)CC(=O)O here?
A: inactive: 1
